The values that follow come from patent US9938322B2 (priority 2013, dated 2018).

Some peptides are written in HELM: one residue between dots, names in brackets for other building blocks, links after the first $. Where no end group is shown, it is not given here. [ ]: non-standard residue; d: D form. Cha = N[C@@H](CC1CCCCC1)C(=O)O; Tle = CC(C)(C)[C@H](N)C(=O)O; dDab = NCC[C@@H](N)C(=O)O; hSer = N[C@@H](CCO)C(=O)O; Orn = NCCC[C@H](N)C(=O)O; Dab = NCC[C@H](N)C(=O)O; Dap = NC[C@H](N)C(=O)O

The data set in a line: general procedure: Fmoc solid-phase peptide synthesis; preloaded Fmoc-amino acid 2-chlorotrityl resins. The following applies: whole synthesis, scale of the general procedure approximately 80 mg resin per vessel.
In the case of “PEPTIDE1{L.[Ala(4butoxyPhUr)].[Cha].[Dab].[Orn].[DDab].[Dab].W.[Dab].[tBuGly].A.S.[dP].P}$PEPTIDE1,PEPTIDE1,1:R1-14:R2$$$V2.0”, the “purity (crude or final not stated)” value worked out at 78%.

Consider “PEPTIDE1{I.[Dap].Y.[Dab].[Orn].[DDab].[Dab].W.[Dab].[tBuGly].A.S.[dP].P}$PEPTIDE1,PEPTIDE1,1:R1-14:R2$$$V2.0”, for which the “purity (crude or final not stated)” value is recorded as 93%.

For the substance “PEPTIDE1{L.S.Y.[Dab].[Orn].[DDab].[Dab].W.[Dab].[Phg].A.S.[dP].P}$PEPTIDE1,PEPTIDE1,1:R1-14:R2$$$V2.0”, the “purity (crude or final not stated)” value was found to be 90%.

As for “PEPTIDE1{L.S.Y.[Dab].[Orn].[Dab].[Dab].W.[Dab].[tBuGly].A.S.[dP].P}$PEPTIDE1,PEPTIDE1,1:R1-14:R2$$$V2.0”, the “purity (crude or final not stated)” value turned out to be 87%.

For “PEPTIDE1{I.S.[Phe(4NH2)].[Dab].[Orn].[D-Dab].[Dab].W.[Dab].[tBuGly].A.S.[dP].P}$PEPTIDE1,PEPTIDE1,1:R1-14:R2$$$V2.0”, the “purity (crude or final not stated)” value came out at 92%.

In the case of “Tza-Ser-Cha-Dab-Orn-^DDab-Dab-Trp-Dab-tBuGly-Ala-Ser-^DPro-Pro”, the “purity (crude or final not stated)” value is listed as 87%.

For “Trp-Dap(iPr)-Cha-Dab-Orn(iPr)-^DDab-Dab-Trp-Dab-tBuGly-Ser-Ser-^DPro-Pro”, the “purity (crude or final not stated)” value amounted to 88%.

For “PEPTIDE1{W.A.Y.[Dab].K.[D-Dab].[Dab].W.[Dab].[tBuGly].A.S.[dP].P}$PEPTIDE1,PEPTIDE1,1:R1-14:R2$$$V2.0”, the “purity (crude or final not stated)” value is on record as 94%.

For the substance “IS[Cha][Dab][Orn][Dab][Dab]W[Dab][Tle]AS[dP]P”, the “purity (crude or final not stated)” value came out at 95%.

As to “PEPTIDE1{V.A.Y.[Dab].[Orn].[D-Dab].[Dab].W.[Dab].[tBuGly].A.S.[dP].P}$PEPTIDE1,PEPTIDE1,1:R1-14:R2$$$V2.0”, the “purity (crude or final not stated)” value came out at 82%.

Turning to “PEPTIDE1{W.A.W.[Dab].[Orn].[D-Dab].[Dab].W.[Dab].[tBuGly].A.S.[dP].P}$PEPTIDE1,PEPTIDE1,1:R1-14:R2$$$V2.0”, the “purity (crude or final not stated)” value turned out to be 78%.

For the substance “PEPTIDE1{W.[Dap(AcThr)].[Cha].[Dab].[Orn].[DDab].[Dab].W.[Dab].[tBuGly].A.S.[dP].P}$PEPTIDE1,PEPTIDE1,1:R1-14:R2$$$V2.0”, the “purity (crude or final not stated)” value is listed as 92%.

In the case of “PEPTIDE1{F.[Dap].Y.[Dab].[Orn].[DDab].[Dab].W.[Dab].[tBuGly].A.S.[dP].P}$PEPTIDE1,PEPTIDE1,1:R1-14:R2$$$V2.0”, the “purity (crude or final not stated)” value is 91%.

Consider “PEPTIDE1{L.A.[Cha].[Dab].[Orn].[DDab].[Dab].W.[Dab].[tBuGly].S.S.[dP].P}$PEPTIDE1,PEPTIDE1,1:R1-14:R2$$$V2.0”, for which the “purity (crude or final not stated)” value came out at 84%.

For the substance “PEPTIDE1{I.[Abu].Y.[Dab].[Orn].[D-Dab].[Dab].W.[Dab].[tBuGly].A.S.[dP].P}$PEPTIDE1,PEPTIDE1,1:R1-14:R2$$$V2.0”, the “purity (crude or final not stated)” value was determined as 95%.

In the case of “PEPTIDE1{L.S.Y.[Dab].[Orn].[DDab].[Dab].W.[Dab].[tBuGly].[dA].S.[dP].P}$PEPTIDE1,PEPTIDE1,1:R1-14:R2$$$V2.0”, the “purity (crude or final not stated)” value is 88%.

For “PEPTIDE1{L.S.Y.[Dab].[Orn].[DDab].[Dab].W.[Dab].[tBuGly].A.S.[dP].P}$PEPTIDE1,PEPTIDE1,1:R1-14:R2$$$V2.0”, the “purity (crude or final not stated)” value came to 95%.

On to “PEPTIDE1{[Nva].S.Y.[Dab].[Orn].[D-Dab].[Dab].W.[Dab].[tBuGly].S.S.[dP].P}$PEPTIDE1,PEPTIDE1,1:R1-14:R2$$$V2.0”, for which the “purity (crude or final not stated)” value was determined as 75%.

For the substance “LSY[Dab][Orn][dDab][Dab]W[hSer][Tle]A[Dap][dP]P”, the “purity (crude or final not stated)” value turned out to be 72%.

In the case of “PEPTIDE1{[Nva].S.Y.[Dab].[Orn].[D-Dab].[Dab].W.[Dab].[tBuGly].A.S.[dP].P}$PEPTIDE1,PEPTIDE1,1:R1-14:R2$$$V2.0”, the “purity (crude or final not stated)” value was 90%.

Take “PEPTIDE1{L.S.Y.[Dab].[Orn].[D-Dab].[Dab].W.[Dab].[tBuGly].A.S.[dP].[Pro((3S)OH)]}$PEPTIDE1,PEPTIDE1,1:R1-14:R2$$$V2.0”: the “purity (crude or final not stated)” value amounted to 82%.

“PEPTIDE1{I.T.Y.[Dab].[Orn].[D-Dab].[Dab].W.[Dab].[tBuGly].A.S.[dP].P}$PEPTIDE1,PEPTIDE1,1:R1-14:R2$$$V2.0”: the “purity (crude or final not stated)” value was determined as 95%.

Turning to “PEPTIDE1{T.S.Y.[Dab].[Orn].[DDab].[Dab].W.[Dab].[tBuGly].A.Y.[dP].P}$PEPTIDE1,PEPTIDE1,1:R1-14:R2$$$V2.0”, the “purity (crude or final not stated)” value was 95%.

For the substance “PEPTIDE1{[Nva].S.[Phe(4CF3)].[Dab].[Orn].[DDab].[Dab].W.[Dab].[tBuGly].A.S.[dP].P}$PEPTIDE1,PEPTIDE1,1:R1-14:R2$$$V2.0”, the “purity (crude or final not stated)” value is 88%.

On to “PEPTIDE1{I.A.[Cha].[Dab].[Orn].[DDab].[Dab].W.[Dab].[tBuGly].S.S.[dP].P}$PEPTIDE1,PEPTIDE1,1:R1-14:R2$$$V2.0”, for which the “purity (crude or final not stated)” value is recorded as 91%.

In the case of “PEPTIDE1{L.S.[Cha].[Dab].[Orn].[D-Dab].[Dab].W.[Dab].[tBuGly].[Alb].S.[dP].[Pro((3S)OH)]}$PEPTIDE1,PEPTIDE1,1:R1-14:R2$$$V2.0”, the “purity (crude or final not stated)” value came out at 83%.

Take “PEPTIDE1{L.S.Y.[Dab].[Orn].[DDab].R.W.[Dab].[tBuGly].A.S.[dP].P}$PEPTIDE1,PEPTIDE1,1:R1-14:R2$$$V2.0”: the “purity (crude or final not stated)” value is listed as 94%.

For “PEPTIDE1{L.G.Y.[Dab].[Orn].[DDab].[Dab].W.[Dab].[tBuGly].[Dab].S.[dP].P}$PEPTIDE1,PEPTIDE1,1:R1-14:R2$$$V2.0”, the “purity (crude or final not stated)” value stood at 88%.

“PEPTIDE1{W.S.Y.[Dab].[Orn].[D-Dab].[Dab].W.[Dab].[Cha].A.S.[dP].P}$PEPTIDE1,PEPTIDE1,1:R1-14:R2$$$V2.0”: the “purity (crude or final not stated)” value is 95%.

As to “PEPTIDE1{W.[Dap].[Cha].[Dab(2PyrMe)].[Orn].[DDab].[Dab].W.[Dab].[tBuGly].A.S.[dP].P}$PEPTIDE1,PEPTIDE1,1:R1-14:R2$$$V2.0”, the “purity (crude or final not stated)” value turned out to be 91%.

Turning to “PEPTIDE1{L.S.Y.[Dab].[Orn].[DDab].[Dab].W.[Hse].[tBuGly].A.S.[dP].P}$PEPTIDE1,PEPTIDE1,1:R1-14:R2$$$V2.0”, the “purity (crude or final not stated)” value was 90%.

As for “PEPTIDE1{L.A.Y.[Dab].K.[D-Dab].[Dab].W.[Dab].[Cha].A.S.[dP].P}$PEPTIDE1,PEPTIDE1,1:R1-14:R2$$$V2.0”, the “purity (crude or final not stated)” value is 86%.

For the substance “PEPTIDE1{L.S.Y.[Dab].[Orn].[D-Dab].[Dab].W.[Dab].[tBuGly].A.T.[dP].P}$PEPTIDE1,PEPTIDE1,1:R1-14:R2$$$V2.0”, the “purity (crude or final not stated)” value is 95%.

In the case of “PEPTIDE1{L.S.Y.[Dab].[Dap].[DDab].[Dab].W.[Dab].[tBuGly].A.S.[dP].P}$PEPTIDE1,PEPTIDE1,1:R1-14:R2$$$V2.0”, the “purity (crude or final not stated)” value came to 88%.

In the case of “PEPTIDE1{V.S.Y.[Dab].[Orn].[DDab].[Dab].W.[Dab].[Chg].A.S.[dP].P}$PEPTIDE1,PEPTIDE1,1:R1-14:R2$$$V2.0”, the “purity (crude or final not stated)” value was determined as 79%.

Regarding “PEPTIDE1{L.S.Y.[Dab].K.[DDab].[Dab].W.[Dab].W.A.S.[dP].P}$PEPTIDE1,PEPTIDE1,1:R1-14:R2$$$V2.0”, the “purity (crude or final not stated)” value was determined as 91%.

As to “PEPTIDE1{W.[Ser(Me)].[Cha].[Dab].[Orn].[DDab].[Dab].W.[Dab].[tBuGly].A.S.[dP].P}$PEPTIDE1,PEPTIDE1,1:R1-14:R2$$$V2.0”, the “purity (crude or final not stated)” value is on record as 93%.

With “PEPTIDE1{L.A.Y.[Dab].[Orn].[D-Dab].[Dab].W.[Dab].[Chg].A.S.[dP].P}$PEPTIDE1,PEPTIDE1,1:R1-14:R2$$$V2.0”, the “purity (crude or final not stated)” value amounted to 90%.

For the substance “PEPTIDE1{[Nva].S.[tBuGly].[Dab].[Orn].[DDab].[Dab].W.[Dab].[Cha].A.S.[dP].P}$PEPTIDE1,PEPTIDE1,1:R1-14:R2$$$V2.0”, the “purity (crude or final not stated)” value is listed as 95%.

Regarding “PEPTIDE1{L.S.Y.[Dap].[Orn].[DDab].[Dab].W.[Dab].[tBuGly].A.S.[dP].P}$PEPTIDE1,PEPTIDE1,1:R1-14:R2$$$V2.0”, the “purity (crude or final not stated)” value was found to be 89%.

On to “PEPTIDE1{W.[Dap].W.[Dab].[Orn].[D-Dab].[Dab].W.[Dab].[tBuGly].A.S.[dP].P}$PEPTIDE1,PEPTIDE1,1:R1-14:R2$$$V2.0”, for which the “purity (crude or final not stated)” value came out at 91%.

For “PEPTIDE1{[Nva].S.Y.[Dab].[Orn].[DDab].[Dab].W.[Dab].[Chg].A.S.[dP].P}$PEPTIDE1,PEPTIDE1,1:R1-14:R2$$$V2.0”, the “purity (crude or final not stated)” value is reported as 79%.

As to “PEPTIDE1{L.A.Y.[Dab].[Orn].[D-Dab].[Dab].W.[Dab].[tBuGly].S.S.[dP].P}$PEPTIDE1,PEPTIDE1,1:R1-14:R2$$$V2.0”, the “purity (crude or final not stated)” value is 89%.

Regarding “VS[Cha][Dab][Orn][dDab][Dab]W[Dab][Tle]AS[dP]P”, the “purity (crude or final not stated)” value was 92%.

For the substance “PEPTIDE1{L.T.Y.[Dab].[Orn].[D-Dab].[Dab].W.[Dab].[tBuGly].T.S.[dP].P}$PEPTIDE1,PEPTIDE1,1:R1-14:R2$$$V2.0”, the “purity (crude or final not stated)” value came out at 89%.

As to “PEPTIDE1{[Nva].S.[tBuGly].[Dab].K.[DDab].[Dab].W.[Dab].[Cha].A.S.[dP].P}$PEPTIDE1,PEPTIDE1,1:R1-14:R2$$$V2.0”, the “purity (crude or final not stated)” value is 88%.

In the case of “Leu-Ser-Tyr-Dab-Orn-^DDab-Dab-Trp-Dab-Tyr-Ala-Ser-^DPro-Pro((3S)OH)”, the “purity (crude or final not stated)” value is listed as 92%.

“PEPTIDE1{L.D.Y.[Dab].[Orn].[D-Dab].[Dab].W.[Dab].[tBuGly].Y.S.[dP].P}$PEPTIDE1,PEPTIDE1,1:R1-14:R2$$$V2.0”: the “purity (crude or final not stated)” value was 94%.

With “LTY[Dab][Orn][dDab][Dab]W[Dab][Tle]NS[dP]P”, the “purity (crude or final not stated)” value is on record as 95%.

Regarding “PEPTIDE1{L.S.Y.[Dab].[Orn].[D-Dab].[Dab].W.[Dab].W.S.S.[dP].P}$PEPTIDE1,PEPTIDE1,1:R1-14:R2$$$V2.0”, the “purity (crude or final not stated)” value is reported as 92%.
